Data: publication PMC7819943, “Rice protein-binding microarrays: a tool to detect cis-acting elements near promoter regions in rice”
This is one part of the list.

Chains of the proteins cited; added tags and fusions are not shown.
UniProt Q0JBA9, entry or part of it: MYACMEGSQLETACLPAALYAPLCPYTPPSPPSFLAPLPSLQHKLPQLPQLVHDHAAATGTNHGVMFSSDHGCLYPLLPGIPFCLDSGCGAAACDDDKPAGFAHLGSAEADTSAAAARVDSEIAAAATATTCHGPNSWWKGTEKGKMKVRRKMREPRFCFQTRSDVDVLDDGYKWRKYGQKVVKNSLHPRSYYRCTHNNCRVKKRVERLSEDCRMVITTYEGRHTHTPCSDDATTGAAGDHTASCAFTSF

These sequences were tested against OsWRKY34 (Oryza sativa, UniProt Q0JBA9 1-250) (assay: protein-binding microarray (RPBM); PBS, 2% BSA, 51.3 ng/ul salmon testes DNA, 50 uM zinc acetate, 200 nM TF, 25 C, 1 h; high values mean tight binding). Settings: protein: recombinant; tags: N-terminal polyhistidine and DsRed monomer fusion (pET32a); label: CyDye5-dUTP incorporated in the synthesized complementary strand; 3' TTTTT single-stranded linker to array surface; dsDNA, one strand shown.
Procedure, shortened: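 Per-feature fluorescence intensity (arbitrary units), read on an Axon 4000B scanner, is the binding signal. Transcription factors carrying an N-terminal polyhistidine tag and DsRed fusion were expressed in E. coli BL21-CodonPlus and purified on Ni–NTA. A custom Agilent array, made double-stranded by primer extension with Cy5-dUTP and blocked with 2% BSA, was incubated with 200 nM protein in PBS, 2% BSA, salmon testes DNA and 50 µM zinc acetate at 25 °C for 1 h and then washed.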

| Sequence | binding signal |
| --- | --- |
| AAATCATGTGCATCCTACCCTTCTGTTTCTTGCTTCGGAACGGAGTCACCTAGTGCAG | 8290 fluorescence intensity (a.u.) |
| ATTATAGCCATTCTCTCCAGCCACCCTCTCGCCTCCTCCTCGGAGTCACCTAGTGCAG | 8640 fluorescence intensity (a.u.) |
| GTCCTGTATAGCTGTAAGTATATATGATCATTCATTGCTCCGGAGTCACCTAGTGCAG | 8560 fluorescence intensity (a.u.) |
| AGTTCAGGGTTTCAGACTCTTAAGAAGTTCAGATTTTTCTCGGAGTCACCTAGTGCAG | 8140 fluorescence intensity (a.u.) |
| GCCTGCCTGCCTGTGAATTTTTTTTTTGTTTTCAATTTGTCGGAGTCACCTAGTGCAG | 9470 fluorescence intensity (a.u.) |
| AAACATATTTACAATGGCATGAATCCAATTTACCCTTTTTCGGAGTCACCTAGTGCAG | 10100 fluorescence intensity (a.u.) |
| CCTCACCATCCAACCTCGCCACCTGACGATTCCCCTAAGCCGGAGTCACCTAGTGCAG | 9630 fluorescence intensity (a.u.) |
| TTCTCATGCTTTGACGCCACCATTAAGCTTTGGCTTTTCTCGGAGTCACCTAGTGCAG | 8600 fluorescence intensity (a.u.) |
| GTGGTTTTGCAATGTGGTTTTTAATCTAATATGTATATACCGGAGTCACCTAGTGCAG | 8080 fluorescence intensity (a.u.) |
| TGGTTGTTCTCTCATGCTCTCACACACTTGGATGCTAGCTCGGAGTCACCTAGTGCAG | 8150 fluorescence intensity (a.u.) |
| ATCCGGAATTGTGATCCCTGCTGATTACTCGCTTGATAAACGGAGTCACCTAGTGCAG | 10900 fluorescence intensity (a.u.) |
| TGTTTGGCGCTGATGCGCTACGTTTGTTAACTGTTGTCCGCGGAGTCACCTAGTGCAG | 9210 fluorescence intensity (a.u.) |
| AGGGTCGTCTCTTGACTAGCAGTGTCAATTGACCAGTTTGCGGAGTCACCTAGTGCAG | 8600 fluorescence intensity (a.u.) |
| TGCGCCAGCCGCCGTCGACCTCGCCGCCAACCGCGCGCCGCGGAGTCACCTAGTGCAG | 9250 fluorescence intensity (a.u.) |
| ATTACTCCCCTCGGACCGACATTTCCACTTTCTAACAAACCGGAGTCACCTAGTGCAG | 8760 fluorescence intensity (a.u.) |
| TTCTTTTTTTTCGCCATTTCTTTCTATTTTTTTAATCTTTCGGAGTCACCTAGTGCAG | 11000 fluorescence intensity (a.u.) |
| GAACCAAAATGATTATATTGCCCTTTGCTTTCCTACTTTACGGAGTCACCTAGTGCAG | 11000 fluorescence intensity (a.u.) |
| CCACGTGATTGTTCTTTCTGTTCCTTTTTTTATGGGATTGCGGAGTCACCTAGTGCAG | 9000 fluorescence intensity (a.u.) |
| ATATAAAATCTTCACACTGTTTTGTGCCGGTACTTTCCAACGGAGTCACCTAGTGCAG | 8900 fluorescence intensity (a.u.) |
| ACCCCTACCCATTCTCTCTCTCTCTCTCTCTCTAGCTAGCCGGAGTCACCTAGTGCAG | 9690 fluorescence intensity (a.u.) |
| TTTTTACAACCCTGCGATTCAGATAGACCTTACCATTTTTCGGAGTCACCTAGTGCAG | 8940 fluorescence intensity (a.u.) |

| Sequence | binding signal |
| --- | --- |
| CCTTTTCAAGTATTATTGCTGTTTGATTCATCTCTCTTTGCGGAGTCACCTAGTGCAG | 9510 fluorescence intensity (a.u.) |
| AATCCATTTCCCATTCGCCATTCCCCATCCTTATCTCTTACGGAGTCACCTAGTGCAG | 8660 fluorescence intensity (a.u.) |
| CTGTTCATCATCAGCTCGAGTGTTCAACGACCTTTGCCCTCGGAGTCACCTAGTGCAG | 8900 fluorescence intensity (a.u.) |
| ATCCGACGCGTTCGTTGTACTGTAATCTGTAGGCGTTGACCGGAGTCACCTAGTGCAG | 15600 fluorescence intensity (a.u.) |
| CTTGCACCATTGTTTATTTTTTGTATTTTTCATTCCTCAACGGAGTCACCTAGTGCAG | 8870 fluorescence intensity (a.u.) |
| CACCGCTGTCATGCCTTGTCTTCGAGTCGGTCCAGGGGATCGGAGTCACCTAGTGCAG | 8030 fluorescence intensity (a.u.) |
| GCACACCCTCGCTCTGACGACCCTGTCACGTTGAGCTACGCGGAGTCACCTAGTGCAG | 8240 fluorescence intensity (a.u.) |
| ACCACCACCGTCTCAACTCTCTCTCAGACTGTCCGCCATGCGGAGTCACCTAGTGCAG | 8030 fluorescence intensity (a.u.) |
| CTAATTTCTGCTTTTTTCATGCAGTATAATCAATCAGCCACGGAGTCACCTAGTGCAG | 8040 fluorescence intensity (a.u.) |
| ACATTTCTGGTTTGTGGTTAAGGGACCTCAATAAATCTCGCGGAGTCACCTAGTGCAG | 8160 fluorescence intensity (a.u.) |
| GCGCTCCCGTCGTTGTCTCCGCTGCTTTGTTTCTCGTCGCCGGAGTCACCTAGTGCAG | 11600 fluorescence intensity (a.u.) |
| CTGCTACTCCTCTGCCTGCATATGTGTTCAATCTCTGTTGCGGAGTCACCTAGTGCAG | 8940 fluorescence intensity (a.u.) |
| AACTCGATCCGCCGCCGCCACACCTTGATCCGCCACCTCCCGGAGTCACCTAGTGCAG | 10200 fluorescence intensity (a.u.) |
| GATTTTTAAAACAACTTTCGTGTAGATTGTCTTTTTTTTTCGGAGTCACCTAGTGCAG | 9880 fluorescence intensity (a.u.) |
| ACGCGACCTGTCCGCCGTCGACACACCCGCGCCGTTCCTGCGGAGTCACCTAGTGCAG | 11000 fluorescence intensity (a.u.) |
| TTTTCCGTTCACTTCTGGACTTTTTGGCTGTGTGCCTACGCGGAGTCACCTAGTGCAG | 12600 fluorescence intensity (a.u.) |
| AGTAGTGCCCGACATCGTCTCCTCGATAGTTGTCTCCGTCCGGAGTCACCTAGTGCAG | 8480 fluorescence intensity (a.u.) |
| CAGGGTTTGTCTTTTTTTTTGACGGAGGGAGTACGTCAATCGGAGTCACCTAGTGCAG | 8050 fluorescence intensity (a.u.) |
| GACTATCTTGTCGTTCGGTCCAAAAACCGGCGCCTTATGACGGAGTCACCTAGTGCAG | 8300 fluorescence intensity (a.u.) |
| ATCCATCGGTACGTTCTTTCTTTCTTTCTTTCTGCATGATCGGAGTCACCTAGTGCAG | 9700 fluorescence intensity (a.u.) |
| TTATACGAACTCTATATTGCTTATTTGTAATTCCGAATTTCGGAGTCACCTAGTGCAG | 8240 fluorescence intensity (a.u.) |

A portion taken from the entries so far, for reference:

| Sequence | binding signal |
| --- | --- |
| GCGCTCCCGTCGTTGTCTCCGCTGCTTTGTTTCTCGTCGCCGGAGTCACCTAGTGCAG | 11600 fluorescence intensity (a.u.) |
| CTGCTACTCCTCTGCCTGCATATGTGTTCAATCTCTGTTGCGGAGTCACCTAGTGCAG | 8940 fluorescence intensity (a.u.) |
